{
  "source": "patent US5589506A",
  "about": "“Stilbene derivative and stilbene analog derivative, and use thereof” (Morinaga Milk Industry Co., Ltd., priority 1993, dated 1996)",
  "biological_target": "T1, 12-lipoxygenase (Rattus norvegicus, UniProt F1LQ70)",
  "T1 construct": "The pelleted platelets were rinsed twice with a washing buffer; from tissue; host or cells: platelets of Sprague Dawley male rat (sonicate, 100,000 x g supernatant)",
  "T1 sequence (F1LQ70 1-663)": "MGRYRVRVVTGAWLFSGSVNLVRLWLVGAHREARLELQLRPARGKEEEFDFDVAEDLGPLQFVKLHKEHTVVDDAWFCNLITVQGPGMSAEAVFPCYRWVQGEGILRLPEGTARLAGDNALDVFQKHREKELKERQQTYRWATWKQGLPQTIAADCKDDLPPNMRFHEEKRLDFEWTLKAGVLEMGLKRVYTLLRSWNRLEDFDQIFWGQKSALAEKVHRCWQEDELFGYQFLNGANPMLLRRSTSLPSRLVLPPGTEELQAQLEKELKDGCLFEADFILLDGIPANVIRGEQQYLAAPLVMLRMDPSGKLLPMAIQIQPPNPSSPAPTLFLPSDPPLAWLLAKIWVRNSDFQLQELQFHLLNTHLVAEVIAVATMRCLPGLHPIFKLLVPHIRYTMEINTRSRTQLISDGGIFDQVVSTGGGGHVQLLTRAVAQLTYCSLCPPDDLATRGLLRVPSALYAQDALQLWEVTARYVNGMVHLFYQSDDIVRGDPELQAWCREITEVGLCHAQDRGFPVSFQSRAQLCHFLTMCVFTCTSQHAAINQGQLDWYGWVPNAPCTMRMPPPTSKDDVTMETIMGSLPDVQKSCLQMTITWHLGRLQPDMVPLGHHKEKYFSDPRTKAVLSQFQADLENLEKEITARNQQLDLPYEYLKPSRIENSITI",
  "test": "12-lipoxygenase inhibition assay (rat platelet enzyme solution)",
  "assay_type": "biochemical, Sprague Dawley male rat",
  "settings": "10^-5 (mole concentration); 10 µM; listed as Comparative Example 4, 10 µM",
  "protocol": "The test was performed to examine inhibitory effect of various compounds on the 12-lipoxyganase activity.\n1) Preparation of Enzyme Solution\nA Sprague Dawley male rat was anesthetized with ether and bled from abdominal aorta using a syringe filled with about one-tenth volume of 3.8% sodium citrate. Blood was centrifuged at 180×g for 15 minutes at room temperature to pellet sanguineous platelet blood plasma. The resultant supernatant was again centrifuged at 1800×g for 10 minutes at 4° C. The pelleted platelets were rinsed twice with a washing buffer (50 mM Tris-hydrochloric acid buffer containing 154 mM sodium chloride and 2 mM EDTA, pH: 7.4). The platelets were then suspended in one-twentieth volume of a resuspension buffer (50 mM Tris-hydrochloric acid buffer containing 154 mM sodium chloride and 5.5 mM glucose, pH: 7.4). […]\nThe enzyme solution described above was diluted with the resuspension buffer above mentioned to prepare an assay solution so as to include about 2 mU/ml of 12-lipoxygenase. […] After being centrifuged at 10,000×g for 5 minutes, 12-hydroxyeicosatetraenoic acid recovered in the supernatant was separated with a reverse phase high-performance liquid chromatography equipped with a […] the activity of 12 lipoxygenase. […]",
  "note": "Some results were stated once for a whole list of compounds, not compound by compound.",
  "data": [
    {"smiles": "COc1cc(C=C(C#N)c2ccc(Cl)cc2)ccc1O", "note": "[Comp. Ex. 4, reference compound]", "values": [
      {"measurement": "12-Lipoxygenase inhibition ratio (%)", "value": "less than 10%"}
    ]}
  ]
}
